# Reference: the M2OR odorant receptor database
# Only a part is listed here, and it is no random draw. The calls were merged from several studies; some rest on single wells. Some of the results follow.
# How the values were obtained:
# Conditions in all cases: stereoisomer not certain
# OR6V1 (Homo sapiens) = biological target: T1, OR6V1 (Homo sapiens) (UniProt Q8N148)
# T1 sequence (whole entry): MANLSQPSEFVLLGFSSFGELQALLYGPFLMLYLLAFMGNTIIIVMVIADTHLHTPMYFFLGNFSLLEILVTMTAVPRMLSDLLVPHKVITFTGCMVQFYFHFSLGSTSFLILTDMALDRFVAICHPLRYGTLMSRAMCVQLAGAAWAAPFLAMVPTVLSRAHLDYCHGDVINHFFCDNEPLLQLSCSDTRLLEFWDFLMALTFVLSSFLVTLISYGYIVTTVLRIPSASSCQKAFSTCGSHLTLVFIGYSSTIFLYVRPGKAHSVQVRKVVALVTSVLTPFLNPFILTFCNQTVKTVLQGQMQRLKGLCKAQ
# In short: (§1)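 Each entry records the cell line, G-protein, co-transfected protein and tags used. Methods varied with the source, often transient luciferase assays in mammalian cell lines. A receptor–molecule pair is called responsive (active) if the original authors judged its signal statistically different from baseline and non-responsive (inactive) otherwise.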
# OR6X1 (Homo sapiens) = biological target: T2, OR6X1 (Homo sapiens) (UniProt Q8NH79)
# T2 sequence (whole entry): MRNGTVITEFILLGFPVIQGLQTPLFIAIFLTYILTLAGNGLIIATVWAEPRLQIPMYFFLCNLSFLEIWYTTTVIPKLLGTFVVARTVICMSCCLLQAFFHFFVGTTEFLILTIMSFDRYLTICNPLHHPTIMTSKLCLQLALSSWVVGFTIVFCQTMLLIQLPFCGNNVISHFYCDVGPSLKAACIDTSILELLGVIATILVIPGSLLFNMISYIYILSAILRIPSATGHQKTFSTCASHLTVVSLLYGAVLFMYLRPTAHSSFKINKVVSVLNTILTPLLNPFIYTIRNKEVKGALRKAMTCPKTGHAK
# In short: as §1
# OR6M1 (Homo sapiens) = biological target: T3, OR6M1 (Homo sapiens) (UniProt Q8NGM8)
# T3 sequence (whole entry): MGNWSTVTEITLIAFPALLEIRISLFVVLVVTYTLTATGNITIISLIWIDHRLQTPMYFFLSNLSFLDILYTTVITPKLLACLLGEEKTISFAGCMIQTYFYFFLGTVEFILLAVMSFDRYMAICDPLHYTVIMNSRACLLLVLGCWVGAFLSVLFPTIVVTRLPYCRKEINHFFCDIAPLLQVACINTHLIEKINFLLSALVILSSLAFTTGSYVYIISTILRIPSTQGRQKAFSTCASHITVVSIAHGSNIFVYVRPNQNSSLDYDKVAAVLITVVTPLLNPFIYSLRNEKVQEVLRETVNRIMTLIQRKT
# In short: as §1
# OR6N1 = test system: T4, OR6N1
# T4 sequence (whole entry): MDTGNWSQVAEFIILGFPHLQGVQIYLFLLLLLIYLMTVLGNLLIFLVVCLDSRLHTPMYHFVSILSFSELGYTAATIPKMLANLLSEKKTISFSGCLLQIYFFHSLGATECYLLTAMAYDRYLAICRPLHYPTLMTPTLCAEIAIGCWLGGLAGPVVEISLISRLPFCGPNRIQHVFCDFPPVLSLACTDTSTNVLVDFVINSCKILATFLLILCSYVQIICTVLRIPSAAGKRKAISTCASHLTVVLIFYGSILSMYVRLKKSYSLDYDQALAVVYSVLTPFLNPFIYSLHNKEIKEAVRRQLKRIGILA
# In short: as §1
# OR6N2 (Homo sapiens) = biological target: T5, OR6N2 (Homo sapiens) (UniProt Q8NGY6)
# T5 sequence (whole entry): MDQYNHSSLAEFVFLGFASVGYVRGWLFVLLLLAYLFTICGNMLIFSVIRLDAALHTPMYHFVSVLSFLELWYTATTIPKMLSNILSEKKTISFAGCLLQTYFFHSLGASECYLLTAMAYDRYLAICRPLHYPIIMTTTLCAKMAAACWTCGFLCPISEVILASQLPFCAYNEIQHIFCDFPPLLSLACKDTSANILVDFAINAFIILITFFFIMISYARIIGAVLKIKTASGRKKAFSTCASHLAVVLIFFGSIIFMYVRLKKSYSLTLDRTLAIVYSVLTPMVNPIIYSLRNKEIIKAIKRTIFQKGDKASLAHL
# In short: as §1
# OR6P1 (Homo sapiens) = biological target: T6, OR6P1 (Homo sapiens) (UniProt Q8NGX9)
# T6 sequence (whole entry): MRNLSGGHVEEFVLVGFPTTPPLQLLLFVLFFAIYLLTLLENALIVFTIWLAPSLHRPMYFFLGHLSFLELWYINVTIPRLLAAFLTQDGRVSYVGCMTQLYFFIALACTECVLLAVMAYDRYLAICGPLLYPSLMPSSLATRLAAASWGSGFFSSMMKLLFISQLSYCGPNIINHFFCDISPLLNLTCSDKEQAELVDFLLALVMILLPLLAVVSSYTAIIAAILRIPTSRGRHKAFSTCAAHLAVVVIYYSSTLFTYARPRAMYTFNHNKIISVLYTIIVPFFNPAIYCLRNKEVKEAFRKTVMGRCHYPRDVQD
# In short: as §1
# OR6Q1 (Homo sapiens) = biological target: T7, OR6Q1 (Homo sapiens) (UniProt Q8NGQ2)
# T7 sequence (whole entry): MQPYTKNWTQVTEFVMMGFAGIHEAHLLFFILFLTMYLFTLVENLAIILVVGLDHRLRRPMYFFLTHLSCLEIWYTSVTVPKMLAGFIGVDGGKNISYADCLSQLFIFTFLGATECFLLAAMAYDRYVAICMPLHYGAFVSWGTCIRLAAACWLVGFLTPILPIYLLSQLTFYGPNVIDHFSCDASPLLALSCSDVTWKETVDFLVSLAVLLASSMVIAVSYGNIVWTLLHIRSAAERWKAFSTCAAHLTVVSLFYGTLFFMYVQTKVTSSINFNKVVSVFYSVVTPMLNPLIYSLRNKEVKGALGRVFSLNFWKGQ
# In short: as §1
# OR6S1 = test system: T8, OR6S1
# T8 sequence (whole entry): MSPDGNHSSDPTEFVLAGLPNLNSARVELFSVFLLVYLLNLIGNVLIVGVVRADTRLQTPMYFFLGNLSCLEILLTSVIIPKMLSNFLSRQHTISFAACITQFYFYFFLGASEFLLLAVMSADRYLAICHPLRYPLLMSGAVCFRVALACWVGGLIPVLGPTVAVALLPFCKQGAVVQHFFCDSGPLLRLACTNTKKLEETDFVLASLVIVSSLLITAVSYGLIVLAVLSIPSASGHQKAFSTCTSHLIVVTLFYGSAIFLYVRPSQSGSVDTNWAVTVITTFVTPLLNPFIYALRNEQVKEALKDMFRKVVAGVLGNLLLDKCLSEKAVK
# In short: as §1
# OR6T1 = test system: T9, OR6T1
# T9 sequence (whole entry): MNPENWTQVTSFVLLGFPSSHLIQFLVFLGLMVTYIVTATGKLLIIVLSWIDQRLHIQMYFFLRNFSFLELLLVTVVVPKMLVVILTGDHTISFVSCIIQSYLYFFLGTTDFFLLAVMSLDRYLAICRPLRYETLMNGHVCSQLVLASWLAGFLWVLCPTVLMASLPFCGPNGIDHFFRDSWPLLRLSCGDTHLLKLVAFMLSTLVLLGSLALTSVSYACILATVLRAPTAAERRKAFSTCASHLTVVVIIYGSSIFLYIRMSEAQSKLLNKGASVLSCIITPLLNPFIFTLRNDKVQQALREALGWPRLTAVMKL
# In short: as §1
# OR6Y1 = test system: T10, OR6Y1
# T10 sequence (whole entry): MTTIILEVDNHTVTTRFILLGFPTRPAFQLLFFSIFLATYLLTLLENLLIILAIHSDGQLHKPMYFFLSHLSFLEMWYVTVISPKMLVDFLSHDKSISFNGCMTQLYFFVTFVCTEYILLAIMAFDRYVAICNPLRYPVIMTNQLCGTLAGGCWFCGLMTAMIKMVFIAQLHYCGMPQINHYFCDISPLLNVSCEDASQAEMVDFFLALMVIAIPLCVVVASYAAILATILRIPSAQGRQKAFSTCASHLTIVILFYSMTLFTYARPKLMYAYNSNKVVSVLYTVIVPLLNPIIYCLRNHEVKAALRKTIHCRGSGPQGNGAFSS
# In short: as §1
# OR7A10 (Homo sapiens) = biological target: T11, OR7A10 (Homo sapiens) (UniProt O76100)
# T11 sequence (whole entry): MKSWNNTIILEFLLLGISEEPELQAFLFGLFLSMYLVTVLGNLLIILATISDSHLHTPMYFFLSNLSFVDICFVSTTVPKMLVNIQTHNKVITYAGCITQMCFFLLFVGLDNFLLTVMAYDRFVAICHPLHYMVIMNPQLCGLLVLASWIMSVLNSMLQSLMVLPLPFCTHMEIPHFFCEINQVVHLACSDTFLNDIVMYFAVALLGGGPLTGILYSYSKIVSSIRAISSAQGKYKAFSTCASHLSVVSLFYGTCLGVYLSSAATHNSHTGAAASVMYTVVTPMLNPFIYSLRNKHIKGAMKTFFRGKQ
# In short: as §1
# OR7A17 (Homo sapiens) = biological target: T12, OR7A17 (Homo sapiens) (UniProt O14581)
# T12 sequence (whole entry): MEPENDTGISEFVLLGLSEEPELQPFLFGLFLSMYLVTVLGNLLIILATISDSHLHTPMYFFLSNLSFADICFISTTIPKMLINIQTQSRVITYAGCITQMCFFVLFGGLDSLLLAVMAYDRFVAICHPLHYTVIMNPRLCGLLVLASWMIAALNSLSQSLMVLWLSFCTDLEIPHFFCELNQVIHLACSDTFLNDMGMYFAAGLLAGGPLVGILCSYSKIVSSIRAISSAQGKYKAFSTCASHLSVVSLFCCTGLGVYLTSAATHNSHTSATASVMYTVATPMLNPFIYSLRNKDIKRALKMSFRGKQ
# In short: as §1
# OR7A5 (Homo sapiens) = biological target: T13, OR7A5 (Homo sapiens) (UniProt Q15622)
# T13 sequence (whole entry): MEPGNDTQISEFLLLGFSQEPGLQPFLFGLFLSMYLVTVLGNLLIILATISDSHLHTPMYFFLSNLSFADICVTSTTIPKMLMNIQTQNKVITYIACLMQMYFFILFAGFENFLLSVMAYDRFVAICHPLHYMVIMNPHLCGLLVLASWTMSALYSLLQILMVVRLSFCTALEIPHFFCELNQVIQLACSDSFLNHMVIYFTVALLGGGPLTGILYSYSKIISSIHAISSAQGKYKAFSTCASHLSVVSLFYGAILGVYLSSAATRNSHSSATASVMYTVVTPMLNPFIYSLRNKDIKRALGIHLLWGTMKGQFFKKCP
# In short: as §1
# OR7C1 = test system: T14, OR7C1
# T14 sequence (whole entry): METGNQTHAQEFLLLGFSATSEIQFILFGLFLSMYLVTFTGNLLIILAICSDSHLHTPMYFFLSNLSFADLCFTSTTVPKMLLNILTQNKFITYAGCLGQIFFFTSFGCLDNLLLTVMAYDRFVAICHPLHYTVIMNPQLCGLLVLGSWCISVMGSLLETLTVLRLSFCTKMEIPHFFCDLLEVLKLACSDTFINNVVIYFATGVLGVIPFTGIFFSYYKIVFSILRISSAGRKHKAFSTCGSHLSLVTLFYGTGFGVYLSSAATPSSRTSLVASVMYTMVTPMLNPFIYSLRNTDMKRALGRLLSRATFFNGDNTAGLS
# In short: as §1
# OR6N1 (Homo sapiens) = OR6N1 (Homo sapiens) (UniProt Q8NGY5)
# In short: as §1
# OR6S1 (Homo sapiens) = OR6S1 (Homo sapiens) (UniProt Q8NH40)
# In short: as §1
# OR6T1 (Homo sapiens) = OR6T1 (Homo sapiens) (UniProt Q8NGN1)
# In short: as §1
# OR6Y1 (Homo sapiens) = OR6Y1 (Homo sapiens) (UniProt Q8NGX8)
# In short: as §1
# OR7C1 (Homo sapiens) = OR7C1 (Homo sapiens) (UniProt O76099)
# In short: as §1
Structure (SMILES),odorant receptor agonist call (OR6V1 (Homo sapiens)),odorant receptor agonist call (OR6X1 (Homo sapiens)),odorant receptor agonist call (OR6M1 (Homo sapiens)),odorant receptor agonist call (OR6N1),odorant receptor agonist call (OR6N2 (Homo sapiens)),odorant receptor agonist call (OR6P1 (Homo sapiens)),odorant receptor agonist call (OR6Q1 (Homo sapiens)),odorant receptor agonist call (OR6S1),odorant receptor agonist call (OR6T1),odorant receptor agonist call (OR6Y1),odorant receptor agonist call (OR7A10 (Homo sapiens)),odorant receptor agonist call (OR7A17 (Homo sapiens)),odorant receptor agonist call (OR7A5 (Homo sapiens)),odorant receptor agonist call (OR7C1),odorant receptor agonist call (OR6N1 (Homo sapiens)),odorant receptor agonist call (OR6S1 (Homo sapiens)),odorant receptor agonist call (OR6T1 (Homo sapiens)),odorant receptor agonist call (OR6Y1 (Homo sapiens)),odorant receptor agonist call (OR7C1 (Homo sapiens))
C=C(C)C1CCC2=CC(=O)CC(C)C2(C)C1 (stereo not given),active,inactive,,,,,,,,,,,,,,,,,
COC(=O)c1ccccc1O,inactive,inactive,inactive,inactive,inactive,inactive,inactive,inactive,inactive,inactive,inactive,inactive,inactive,inactive,,,,,
CC(C)=CCCC(C)=CC=O,inactive,inactive,inactive,inactive,inactive,inactive,inactive,inactive,inactive,inactive,inactive,inactive,inactive,inactive,,,,,
CC12C=CCC1C1CCC3CC(=O)CCC3(C)C1CC2 (stereo not given),inactive,inactive,,inactive,inactive,inactive,inactive,inactive,active,inactive,inactive,inactive,inactive,active,inactive,inactive,inactive,inactive,inactive
COc1cc(C)ccc1O,inactive,inactive,inactive,inactive,inactive,inactive,inactive,inactive,inactive,inactive,inactive,inactive,inactive,inactive,,,,,
CC12CCC(CC1)C(C)(C)O2,inactive,inactive,inactive,inactive,inactive,inactive,inactive,inactive,inactive,inactive,inactive,inactive,inactive,inactive,,,,,
CCCCCCCC=CC=O,inactive,inactive,inactive,active,active,active,inactive,inactive,inactive,active,inactive,inactive,inactive,inactive,,,,,
O=C1CCCCC1,,,inactive,inactive,inactive,inactive,,inactive,inactive,inactive,inactive,inactive,inactive,inactive,,,,,
CCCCCCCOC(C)=O,inactive,inactive,inactive,inactive,inactive,inactive,inactive,inactive,inactive,inactive,inactive,inactive,inactive,inactive,,,,,
COC(=O)c1ccccc1,,,inactive,inactive,inactive,active,,inactive,inactive,active,active,inactive,inactive,inactive,,,,,
O=CCc1ccccc1,active,active,inactive,inactive,inactive,active,inactive,inactive,inactive,inactive,inactive,inactive,inactive,inactive,,,,,
CC(C)CC(=O)O,inactive,inactive,inactive,inactive,inactive,inactive,inactive,inactive,inactive,inactive,inactive,inactive,inactive,inactive,,,,,
CC1=NC(C)SC1C (stereo not given),,,inactive,inactive,inactive,inactive,,inactive,inactive,inactive,inactive,inactive,inactive,inactive,,,,,

# As entered above:
# CC12CCC(CC1)C(C)(C)O2 | odorant receptor agonist call (OR6N1): inactive
# COC(=O)c1ccccc1O | odorant receptor agonist call (OR7C1): inactive
